Measurements from PMC9916866 (International Journal of Molecular Sciences, 2023).
No constants are given. Whether binding was seen depends on the method and setting. In cells and extracts the contact can be indirect. Some binding calls cover weakened binding; strength is not graded here.

Biological target: AT1-YFP (UniProt P30556)
Test: FRET or BRET

binding: binds
Substance: Rluc8-β-arrestin 2 (from UniProt P32121 1-409)
